Results reported in article PMC2739719.
No constants are given. Whether binding was seen depends on the method and setting. Binding seen in cells or lysates may run through a third protein. A yes stands for co-enrichment or nearness to the bait. Other partners may have been found. Tags and fused reporters may be left off the sequences shown.

Sequences of proteins named here, by UniProt entry; tags and fusion partners are left off. A change or cut given only in a name is not applied to a line headed by its entry.
UniProt P16403: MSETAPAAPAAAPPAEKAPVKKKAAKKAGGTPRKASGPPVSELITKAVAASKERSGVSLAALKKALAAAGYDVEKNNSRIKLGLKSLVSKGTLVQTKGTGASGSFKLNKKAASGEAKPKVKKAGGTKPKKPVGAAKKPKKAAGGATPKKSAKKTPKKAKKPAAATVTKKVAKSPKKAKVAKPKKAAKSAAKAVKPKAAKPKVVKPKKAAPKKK
UniProt P35908: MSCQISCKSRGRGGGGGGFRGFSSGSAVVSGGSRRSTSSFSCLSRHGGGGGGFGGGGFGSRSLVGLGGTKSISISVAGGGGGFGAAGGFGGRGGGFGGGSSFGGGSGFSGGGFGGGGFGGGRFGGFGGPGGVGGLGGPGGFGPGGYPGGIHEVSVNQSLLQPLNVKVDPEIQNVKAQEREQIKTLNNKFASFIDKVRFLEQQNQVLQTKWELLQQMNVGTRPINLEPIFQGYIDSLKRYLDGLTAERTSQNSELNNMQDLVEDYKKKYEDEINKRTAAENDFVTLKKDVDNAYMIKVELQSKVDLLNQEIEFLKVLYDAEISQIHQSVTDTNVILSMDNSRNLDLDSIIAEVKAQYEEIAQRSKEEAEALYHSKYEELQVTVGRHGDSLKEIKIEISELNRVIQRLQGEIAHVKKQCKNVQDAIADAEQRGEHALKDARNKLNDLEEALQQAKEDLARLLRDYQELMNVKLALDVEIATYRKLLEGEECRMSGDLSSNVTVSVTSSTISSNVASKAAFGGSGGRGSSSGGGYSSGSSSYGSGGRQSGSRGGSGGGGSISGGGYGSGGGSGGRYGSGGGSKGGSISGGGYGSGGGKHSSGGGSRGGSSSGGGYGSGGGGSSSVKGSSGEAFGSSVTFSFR
UniProt P06748: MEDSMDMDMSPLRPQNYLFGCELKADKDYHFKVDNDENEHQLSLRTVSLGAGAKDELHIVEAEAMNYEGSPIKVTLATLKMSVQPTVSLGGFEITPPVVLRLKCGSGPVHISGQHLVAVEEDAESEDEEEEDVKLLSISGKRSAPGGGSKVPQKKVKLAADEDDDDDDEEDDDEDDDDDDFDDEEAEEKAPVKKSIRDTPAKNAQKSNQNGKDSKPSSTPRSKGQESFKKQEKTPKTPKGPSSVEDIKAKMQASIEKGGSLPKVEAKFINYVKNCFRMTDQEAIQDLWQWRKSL
UniProt P42858: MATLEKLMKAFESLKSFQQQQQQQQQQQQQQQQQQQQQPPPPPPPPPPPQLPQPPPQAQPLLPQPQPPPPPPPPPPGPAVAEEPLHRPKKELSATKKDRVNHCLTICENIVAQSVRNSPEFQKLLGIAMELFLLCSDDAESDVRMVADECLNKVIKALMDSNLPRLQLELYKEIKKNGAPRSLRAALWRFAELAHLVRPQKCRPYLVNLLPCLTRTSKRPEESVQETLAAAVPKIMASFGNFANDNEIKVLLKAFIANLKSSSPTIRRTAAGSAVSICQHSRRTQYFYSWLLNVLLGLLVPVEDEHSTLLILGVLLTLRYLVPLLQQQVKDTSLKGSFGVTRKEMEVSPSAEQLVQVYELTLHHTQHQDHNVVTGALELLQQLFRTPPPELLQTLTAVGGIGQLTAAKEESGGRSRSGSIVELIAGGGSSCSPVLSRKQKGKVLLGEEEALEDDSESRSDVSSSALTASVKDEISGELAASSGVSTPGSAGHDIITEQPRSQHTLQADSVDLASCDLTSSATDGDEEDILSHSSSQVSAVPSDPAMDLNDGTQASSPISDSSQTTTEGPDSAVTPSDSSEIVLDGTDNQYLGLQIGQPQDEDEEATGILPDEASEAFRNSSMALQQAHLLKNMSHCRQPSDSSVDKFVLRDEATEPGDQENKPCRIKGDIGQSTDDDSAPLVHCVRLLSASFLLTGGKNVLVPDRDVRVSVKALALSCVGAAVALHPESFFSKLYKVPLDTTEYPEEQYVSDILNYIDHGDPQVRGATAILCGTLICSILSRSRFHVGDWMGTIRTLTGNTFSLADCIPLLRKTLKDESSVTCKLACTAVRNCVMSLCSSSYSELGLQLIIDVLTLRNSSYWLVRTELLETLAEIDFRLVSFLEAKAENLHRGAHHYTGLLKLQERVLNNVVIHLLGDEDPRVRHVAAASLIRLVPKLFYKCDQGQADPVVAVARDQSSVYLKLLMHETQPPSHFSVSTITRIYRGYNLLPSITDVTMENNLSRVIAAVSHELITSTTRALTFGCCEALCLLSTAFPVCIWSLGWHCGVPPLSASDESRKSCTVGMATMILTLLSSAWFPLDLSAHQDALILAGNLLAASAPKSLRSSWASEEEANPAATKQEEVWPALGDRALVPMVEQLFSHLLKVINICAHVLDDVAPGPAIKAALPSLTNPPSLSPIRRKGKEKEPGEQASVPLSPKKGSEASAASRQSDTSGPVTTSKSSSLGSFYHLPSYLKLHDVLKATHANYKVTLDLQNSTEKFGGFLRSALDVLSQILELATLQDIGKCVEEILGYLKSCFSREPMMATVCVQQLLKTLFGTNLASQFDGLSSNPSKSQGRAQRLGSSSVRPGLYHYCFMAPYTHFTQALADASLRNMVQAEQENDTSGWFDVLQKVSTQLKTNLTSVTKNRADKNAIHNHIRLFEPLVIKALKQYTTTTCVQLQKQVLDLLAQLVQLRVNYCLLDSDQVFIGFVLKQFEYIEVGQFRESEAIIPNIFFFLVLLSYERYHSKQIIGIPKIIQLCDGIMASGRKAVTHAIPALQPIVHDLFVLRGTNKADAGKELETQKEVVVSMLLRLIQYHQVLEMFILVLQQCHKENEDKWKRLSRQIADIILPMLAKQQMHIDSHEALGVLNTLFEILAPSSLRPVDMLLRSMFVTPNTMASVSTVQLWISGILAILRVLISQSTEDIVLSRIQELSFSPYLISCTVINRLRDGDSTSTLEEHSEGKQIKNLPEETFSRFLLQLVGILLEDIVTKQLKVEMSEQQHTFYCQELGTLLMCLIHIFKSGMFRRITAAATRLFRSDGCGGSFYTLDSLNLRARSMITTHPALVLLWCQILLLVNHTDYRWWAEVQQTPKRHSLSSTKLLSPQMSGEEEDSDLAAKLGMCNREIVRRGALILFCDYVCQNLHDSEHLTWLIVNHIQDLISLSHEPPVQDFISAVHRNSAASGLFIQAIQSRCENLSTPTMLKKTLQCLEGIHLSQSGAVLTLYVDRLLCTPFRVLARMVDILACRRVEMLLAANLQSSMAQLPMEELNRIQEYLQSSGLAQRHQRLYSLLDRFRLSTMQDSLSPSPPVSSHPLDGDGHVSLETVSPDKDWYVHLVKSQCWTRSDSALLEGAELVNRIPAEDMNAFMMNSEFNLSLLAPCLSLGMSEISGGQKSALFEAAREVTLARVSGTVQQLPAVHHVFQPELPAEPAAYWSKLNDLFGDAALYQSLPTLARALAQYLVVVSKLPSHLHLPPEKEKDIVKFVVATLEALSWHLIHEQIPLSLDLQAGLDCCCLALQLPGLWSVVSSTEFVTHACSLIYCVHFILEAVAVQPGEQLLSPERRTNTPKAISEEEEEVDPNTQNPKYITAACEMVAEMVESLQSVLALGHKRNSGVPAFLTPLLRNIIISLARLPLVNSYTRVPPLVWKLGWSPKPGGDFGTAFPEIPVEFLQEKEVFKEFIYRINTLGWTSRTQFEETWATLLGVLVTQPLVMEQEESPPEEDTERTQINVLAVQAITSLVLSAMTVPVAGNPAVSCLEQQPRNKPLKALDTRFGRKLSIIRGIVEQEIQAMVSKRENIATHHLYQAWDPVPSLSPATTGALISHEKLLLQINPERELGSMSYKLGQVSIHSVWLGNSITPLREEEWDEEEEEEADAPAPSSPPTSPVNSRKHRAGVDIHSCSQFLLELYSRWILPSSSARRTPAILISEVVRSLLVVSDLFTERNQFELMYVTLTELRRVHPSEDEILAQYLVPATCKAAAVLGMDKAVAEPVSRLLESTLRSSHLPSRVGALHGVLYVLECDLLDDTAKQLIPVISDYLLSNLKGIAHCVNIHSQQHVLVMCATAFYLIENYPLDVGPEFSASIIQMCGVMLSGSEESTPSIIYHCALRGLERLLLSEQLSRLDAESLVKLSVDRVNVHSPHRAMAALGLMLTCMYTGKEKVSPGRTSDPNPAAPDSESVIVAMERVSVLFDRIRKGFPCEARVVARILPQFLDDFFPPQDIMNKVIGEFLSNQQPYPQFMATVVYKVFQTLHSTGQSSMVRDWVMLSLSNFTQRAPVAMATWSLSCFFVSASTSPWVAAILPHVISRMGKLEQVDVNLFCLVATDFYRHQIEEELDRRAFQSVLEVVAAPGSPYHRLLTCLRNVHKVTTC
UniProt Q92688: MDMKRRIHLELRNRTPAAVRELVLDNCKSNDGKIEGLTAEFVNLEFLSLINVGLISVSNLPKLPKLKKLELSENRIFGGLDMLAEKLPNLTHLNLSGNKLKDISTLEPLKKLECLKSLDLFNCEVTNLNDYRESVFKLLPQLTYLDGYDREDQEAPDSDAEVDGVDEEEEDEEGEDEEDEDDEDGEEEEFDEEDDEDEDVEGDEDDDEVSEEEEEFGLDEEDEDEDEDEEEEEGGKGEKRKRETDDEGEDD
UniProt O75367: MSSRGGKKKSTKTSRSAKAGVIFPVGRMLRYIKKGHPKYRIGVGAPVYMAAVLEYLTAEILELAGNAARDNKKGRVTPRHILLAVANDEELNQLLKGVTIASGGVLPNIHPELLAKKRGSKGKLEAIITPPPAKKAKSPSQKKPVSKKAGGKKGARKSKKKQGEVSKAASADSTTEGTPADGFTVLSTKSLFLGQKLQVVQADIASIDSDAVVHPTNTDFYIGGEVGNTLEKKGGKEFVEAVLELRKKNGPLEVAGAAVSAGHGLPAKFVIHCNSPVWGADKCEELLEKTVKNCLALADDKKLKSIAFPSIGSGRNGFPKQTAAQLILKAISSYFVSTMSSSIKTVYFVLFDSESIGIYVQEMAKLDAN
UniProt Q01105: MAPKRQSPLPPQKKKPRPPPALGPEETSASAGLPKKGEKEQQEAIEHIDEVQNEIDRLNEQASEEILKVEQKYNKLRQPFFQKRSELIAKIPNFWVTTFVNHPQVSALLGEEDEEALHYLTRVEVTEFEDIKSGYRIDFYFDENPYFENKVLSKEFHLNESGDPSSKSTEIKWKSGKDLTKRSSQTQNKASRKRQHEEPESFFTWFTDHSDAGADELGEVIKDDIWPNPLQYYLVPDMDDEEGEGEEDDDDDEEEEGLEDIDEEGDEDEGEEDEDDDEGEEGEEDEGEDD

T1: recombinant purified His-tagged human BAF (H6BAF) dimers (human) (UniProt O75531)
T1 sequence: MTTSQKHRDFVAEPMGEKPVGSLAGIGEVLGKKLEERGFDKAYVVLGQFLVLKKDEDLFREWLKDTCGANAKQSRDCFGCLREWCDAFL

B1: Serine/threonine-protein phosphatase 1 (FB19) (protein, UniProt Q96QC0 1-940)
chain: MGSGPIDPKELLKGLDSFLNRDGEVKSVDGISKIFSLMKEARKMVSRCTYLNILLQTRSPEILVKFIDVGGYKLLNNWLTYSKTTNNIPLLQQILLTLQHLPLTVDHLKQNNTAKLVKQLSKSSEDEELRKLASVLVSDWMAVIRSQSSTQPAEKDKKKRKDEGKSRTTLPERPLTEVKAETRAEEAPEKKREKPKSLRTTAPSHAKFRSTGLELETPSLVPVKKNASTVVVSDKYNLKPIPLKRQSNVAAPGDATPPAEKKYKPLNTTPNATKEIKVKIIPPQPMEGLGFLDALNSAPVPGIKIKKKKKVLSPTAAKPSPFEGKTSTEPSTAKPSSPEPAPPSEAMDADRPGTPVPPVEVPELMDTASLEPGALDAKPVESPGDPNQLTRKGRKRKSVTWPEEGKLREYFYFELDETERVNVNKIKDFGEAAKREILSDRHAFETARRLSHDNMEEKVPWVCPRPLVLPSPLVTPGSNSQERYIQAEREKGILQELFLNKESPHEPDPEPYEPIPPKLIPLDEECSMDETPYVETLEPGGSGGSPDGAGGSKLPPVLANLMGSMGAGKGPQGPGGGGINVQEILTSIMGSPNSHPSEELLKQPDYSDKIKQMLVPHGLLGPGPIANGFPPGGPGGPKGMQHFPPGPGGPMPGPHGGPGGPVGPRLLGPPPPPRGGDPFWDGPGDPMRGGPMRGGPGPGPGPYHRGRGGRGGNEPPPPPPPFRGARGGRSGGGPPNGRGGPGGGMVGGGGHRPHEGPGGGMGNSSGHRPHEGPGGGMGSGHRPHEGPGGSMGGGGGHRPHEGPGGGISGGSGHRPHEGPGGGMGAGGGHRPHEGPGGSMGGSGGHRPHEGPGHGGPHGHRPHDVPGHRGHDHRGPPPHEHRGHDGPGHGGGGHRGHDGGHSHGGDMSNRPVCRHFMMKGNCRYENNCAFYHPGVNGPPLP
B2: CD2 antigen (cytoplasmic tail) binding protein 2 (protein, UniProt O95400 1-341)
chain: MPKRKVTFQGVGDEEDEDEIIVPKKKLVDPVAGSGGPGSRFKGKHSLDSDEEEDDDDGGSSKYDILASEDVEGQEAATLPSEGGVRITPFNLQEEMEEGHFDADGNYFLNRDAQIRDSWLDNIDWVKIRERPPGQRQASDSEEEDSLGQTSMSAQALLEGLLELLLPRETVAGALRRLGARGGGKGRKGPGQPSSPQRLDRLSGLADQMVARGNLGVYQETRERLAMRLKGLGCQTLGPHNPTPPPSLDMFAEELAEEELETPTPTQRGEAESRGDGLVDVMWEYKWENTGDAELYGPFTSAQMQTWVSEGYFPDGVYCRKLDPPGGQFYNSKRIDFDLYT
B3: Lamin B2 (protein, UniProt Q03252 1-620)
chain: MSPPSPGRRREQRRPRAAATMATPLPGRAGGPATPLSPTRLSRLQEKEELRELNDRLAHYIDRVRALELENDRLLLKISEKEEVTTREVSGIKALYESELADARRVLDETARERARLQIEIGKLRAELDEVNKSAKKREGELTVAQGRVKDLESLFHRSEVELAAALSDKRGLESDVAELRAQLAKAEDGHAVAKKQLEKETLMRVDLENRCQSLQEELDFRKSVFEEEVRETRRRHERRLVEVDSSRQQEYDFKMAQALEELRSQHDEQVRLYKLELEQTYQAKLDSAKLSSDQNDKAASAAREELKEARMRLESLSYQLSGLQKQASAAEDRIRELEEAMAGERDKFRKMLDAKEQEMTEMRDVMQQQLAEYQELLDVKLALDMEINAYRKLLEGEEERLKLSPSPSSRVTVSRATSSSSGSLSATGRLGRSKRKRLEVEEPLGSGPSVLGTGTGGSGGFHLAQQASASGSVSIEEIDLEGKFVQLKNNSDKDQSLGNWRIKRQVLEGEEIAYKFTPKYILRAGQMVTVWAAGAGVAHSPPSTLVWKGQSSWGTGESFRTVLVNADGEEVAMRTVKKSSVMRENENGEEEEEEAEFGEEDLFHQQGDPRTTSRGCYVM
B4: Glycodelin, progesterone associated endometrial protein (protein, UniProt P09466 19-180)
chain: MDIPQTKQDLELPKLAGTWHSMAMATNNISLMATLKAPLRVHITSLLPTPEDNLEIVLHRWENNSCVEKKVLGEKTENPKKFKINYTVANEATLLDTDYDNFLFLCLQDTTTPIQSMMCQYLARVLVEDDEIMQGFIRAFRPLPRHLWYLLDLKQMEEPCRF
B5: Zinc finger protein 428 (protein, UniProt Q96B54 1-188)
chain: MTETREPAETGGYASLEEDDEDLSPGPEHSSDSEYTLSEPDSEEEEDEEEEEEETTDDPEYDPGYKVKQRLGGGRGGPSRRAPRAAQPPAQPCQLCGRSPLGEAPPGTPPCRLCCPATAPQEAPAPEGRALGEEEEEPPRAGEGRPAGREEEEEEEEEGTYHCTECEDSFDNLGELHGHFMLHARGEV
B6: Xeroderma pigmentosum complementation group C protein (protein, UniProt Q01831 1-940)
chain: MARKRAAGGEPRGRELRSQKSKAKSKARREEEEEDAFEDEKPPKKSLLSKVSQGKRKRGCSHPGGSADGPAKKKVAKVTVKSENLKVIKDEALSDGDDLRDFPSDLKKAHHLKRGATMNEDSNEEEEESENDWEEVEELSEPVLGDVRESTAFSRSLLPVKPVEIEIETPEQAKTRERSEKIKLEFETYLRRAMKRFNKGVHEDTHKVHLLCLLANGFYRNNICSQPDLHAIGLSIIPARFTRVLPRDVDTYYLSNLVKWFIGTFTVNAELSASEQDNLQTTLERRFAIYSARDDEELVHIFLLILRALQLLTRLVLSLQPIPLKSATAKGKKPSKERLTADPGGSSETSSQVLENHTKPKTSKGTKQEETFAKGTCRPSAKGKRNKGGRKKRSKPSSSEEDEGPGDKQEKATQRRPHGRERRVASRVSYKEESGSDEAGSGSDFELSSGEASDPSDEDSEPGPPKQRKAPAPQRTKAGSKSASRTHRGSHRKDPSLPAASSSSSSSKRGKKMCSDGEKAEKRSIAGIDQWLEVFCEQEEKWVCVDCVHGVVGQPLTCYKYATKPMTYVVGIDSDGWVRDVTQRYDPVWMTVTRKCRVDAEWWAETLRPYQSPFMDREKKEDLEFQAKHMDQPLPTAIGLYKNHPLYALKRHLLKYEAIYPETAAILGYCRGEAVYSRDCVHTLHSRDTWLKKARVVRLGEVPYKMVKGFSNRARKARLAEPQLREENDLGLFGYWQTEEYQPPVAVDGKVPRNEFGNVYLFLPSMMPIGCVQLNLPNLHRVARKLDIDCVQAITGFDFHGGYSHPVTDGYIVCEEFKDVLLTAWENEQAVIERKEKEKKEKRALGNWKLLAKGLLIRERLKRRYGPKSEAAAPHTDAGGGLSSDEEEGTSSQAEAARILAASWPQNREDEEKQKLKGGPKKTKREKKAAASHLFPFEQL

biological target: T1, recombinant purified His-tagged human BAF (H6BAF) dimers (human); assay: affinity purification with mass spectrometry; scaled up: 100 µg Ni-BAF beads, 5 mg HeLa nuclear lysate proteins; 0.3 M and 1 M NaCl eluates of BAF and control beads labelled with iTRAQ 4-plex reagents; enrichment against bead-only controls; only the target purified

binding | Molecule
binds | Histone H1.2 (from UniProt P16403 1-213)
binds | Keratin 2 (from UniProt P35908 1-639)
binds | Nucleophosmin (NPM) (from UniProt P06748 1-294)
binds | Nucleoprotein TPR (from UniProt P12270 1-2363)
binds | DNA-directed RNA polymerase beta chain
binds | Huntingtin (Huntington disease protein) (from UniProt P42858 1-3142)
binds | Acidic leucine-rich nuclear phosphoprotein (PHAPI2) (from UniProt Q92688 1-251)
binds | Core histone macro-H2A (from UniProt O75367 1-369)
binds | SET (Protein Phosphatase 2A inhibitor, I2PP2A) (from UniProt Q01105 1-290)
binds | B1

biological target: T1, recombinant purified His-tagged human BAF (H6BAF) dimers (human); assay: affinity purification with mass spectrometry; 30 µg H6BAF dimers on Ni-NTA beads, 500 µg pre-cleared HeLa nuclear lysate (benzonase-treated), 3 hrs 4°C; eluted with 0.3 M then 1 M NaCl; LC-MS/MS of eluates; Ni beads alone as control; only the target purified

binding | Molecule
binds | B2
binds | B3
binds | B4
binds | B5
binds | B6
